Test in all cases: SEC; gel filtration on a HiLoad Superdex 200 16/60 column (S200); single peak, apparent molecular mass ~30 kDa; both purified
(In gel filtration, larger molecules generally elute earlier.)

Chains of the proteins cited; added tags and fusions are not shown. Lines headed by an entry give the natural chain unless they say otherwise; changes in a name come on top.
UniProt Q9IFX1: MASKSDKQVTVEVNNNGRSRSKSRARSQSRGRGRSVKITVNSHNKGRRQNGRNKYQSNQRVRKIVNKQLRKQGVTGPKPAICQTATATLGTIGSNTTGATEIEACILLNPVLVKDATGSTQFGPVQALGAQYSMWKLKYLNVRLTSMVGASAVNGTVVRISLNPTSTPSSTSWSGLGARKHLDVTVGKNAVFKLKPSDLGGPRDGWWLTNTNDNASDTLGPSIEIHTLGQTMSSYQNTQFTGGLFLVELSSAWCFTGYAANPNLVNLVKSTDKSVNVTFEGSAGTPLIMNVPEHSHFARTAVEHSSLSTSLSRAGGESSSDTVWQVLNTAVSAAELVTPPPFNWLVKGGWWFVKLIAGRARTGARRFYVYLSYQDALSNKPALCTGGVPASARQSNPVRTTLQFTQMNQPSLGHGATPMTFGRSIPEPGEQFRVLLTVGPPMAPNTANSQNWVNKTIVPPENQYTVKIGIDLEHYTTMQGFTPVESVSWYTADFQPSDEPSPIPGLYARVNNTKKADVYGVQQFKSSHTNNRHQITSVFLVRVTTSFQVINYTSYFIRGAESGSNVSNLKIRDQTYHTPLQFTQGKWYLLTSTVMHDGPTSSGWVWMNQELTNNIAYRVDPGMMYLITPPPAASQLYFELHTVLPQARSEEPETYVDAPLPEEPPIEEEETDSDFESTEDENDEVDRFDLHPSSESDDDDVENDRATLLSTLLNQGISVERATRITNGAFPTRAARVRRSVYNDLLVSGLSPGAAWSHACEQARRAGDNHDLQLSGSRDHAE

Experiment [1] concerns the target HAstV-8 VP90^71–283 (human astrovirus serotype 8 (HAstV-8)) (UniProt Q9IFX1).
The target in experiment [2] is HAstV-8 VP90^71–415 (amino acids 71 to 415 of the capsid protein precursor VP90 of human astrovirus serotype 8) (human astrovirus serotype 8 (HAstV-8), strain Yuc8) (UniProt Q9IFX1).
The target of experiment [3] is HAstV-8 VP90^71–313 (human astrovirus serotype 8 (HAstV-8)) (UniProt Q9IFX1).

Results are given in words; binding and its absence hold for the method and conditions named.

For “HAstV-8 VP90^71–283 (from UniProt Q9IFX1 71-283) (domain or fragment)”, the binding result in experiment [1] is recorded as “no binding”.

For “HAstV-8 VP90^71–415 (amino acids 71 to 415 of the capsid protein precursor VP90 of human astrovirus serotype 8) (from UniProt Q9IFX1 71-415) (domain or fragment)”, the binding entry in experiment [2] is on record as “no binding”.

In the case of “HAstV-8 VP90^71–313 (from UniProt Q9IFX1 71-313) (domain or fragment)”, in experiment [3], the binding result was “no binding”.

Values taken from article PMC5044835, “Crystal Structure of the Human Astrovirus Capsid Protein” (Journal of Virology, 2016).
